The match of structure and compound is tentative.
Each molecule was assayed against human CB1 receptor (Homo sapiens, UniProt P21554). Conditions: read-out: Cannabinoid CB1 Receptor Binding IC50, SK-N-MC cell membranes, radioligand CP-55,940 0.2 nM.

By UniProt entry, the sequences of proteins in these tests, tags left out.
UniProt P21554, whole entry: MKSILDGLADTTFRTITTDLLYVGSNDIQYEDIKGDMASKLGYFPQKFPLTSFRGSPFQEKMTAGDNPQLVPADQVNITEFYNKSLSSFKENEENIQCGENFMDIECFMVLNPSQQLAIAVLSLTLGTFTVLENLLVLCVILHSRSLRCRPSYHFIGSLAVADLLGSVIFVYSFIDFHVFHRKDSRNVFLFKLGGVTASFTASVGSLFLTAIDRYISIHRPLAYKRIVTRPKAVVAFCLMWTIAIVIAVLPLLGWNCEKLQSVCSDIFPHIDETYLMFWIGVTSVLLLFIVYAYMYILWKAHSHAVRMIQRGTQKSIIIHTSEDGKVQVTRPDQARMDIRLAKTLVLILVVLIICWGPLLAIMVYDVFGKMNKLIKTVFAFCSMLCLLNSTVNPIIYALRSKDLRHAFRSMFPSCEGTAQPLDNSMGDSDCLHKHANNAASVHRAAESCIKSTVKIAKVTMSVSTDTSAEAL

| Compound | IC50 [nM] |
| --- | --- |
| C[C@@H](NC(=O)c1nn(-c2ccc(Cl)cc2Cl)c2c1CCC/C2=C\c1cccs1)c1ccccc1 | 16 |
| C[C@@H](NC(=O)c1nn(-c2ccc(Cl)cc2Cl)c2c1CCC/C2=C\c1ccco1)C1CCCCC1 | 42 |
| O=C(NN1CC2CCCC2C1)c1nn(-c2ccc(Cl)cc2Cl)c2c1CCC/C2=C\c1ccc(Br)o1 (stereo not drawn) | 52 |

Source: patent US7452997B2 (priority 2004, dated 2008)
